{"source": "PubChem BioAssay AID540303", "about": "(National Center for Advancing Translational Sciences (NCATS), 2011)", "note": "About 1,000 (0.3%) of roughly 330,000 compounds were called active. The shares of active, inactive and inconclusive entries below differ from those in the screen. Calls come from the whole dose curve; as a rule, active = well fitted inhibition curve with a large enough effect; inconclusive = small, poorly fitted or top-dose-only effect; inactive = no such curve, though single readings can be large or run the other way; tested in mouse RAW 264.7 cells. A potency beside an inconclusive call is a rough fit, not a confirmed value. % is set by controls: 0 for no effect and ±100 for the full control effect; potency is the fitted concentration of half-maximal effect."}
{"experiment": "qHTS for Inhibitors of Cell Surface uPA Generation; note: nearly all actives have a fitted effect of over 55% in size", "details": "cell surface uPA generation assay; series mostly up to 38.3 µM; activity change, negative = inhibition: at the top concentration", "excerpt": "The overall objective of this project is to perform a quantitative high throughput screen (qHTS) to identify novel compounds that inhibit the generation of cell surface urokinase activity. The urokinase plasminogen activator (uPA) is one of the two primary endogenous systems that mediate plasminogen activation into plasmin. Members of this system, including uPA and its receptor (uPAR), are overexpressed in several malignant tumors. This system plays a major role in adhesion, migration, invasion and metastasis of cancer cells. Small molecule inhibitors of the uPA system will serve as probes to understand the molecular mechanisms of the uPA cascade and better understanding the microenvironmental circumstances that facilitate the activation of plasminogen by uPA, and finally may provide novel candidate agents for anticancer drug therapy.\n[…] […] Upon inhibition of the uPA activation cascade, the subsequent cell surface uPA activity-dependent translocation of LF into the cytoplasm is inhibited. ATP-Lite is used to measure intracellular ATP concentrations, which remain increased if LF entry into the cytoplasm is inhibited. This validation assay was performed using a small set of validation compounds.\nNIH Chemical Genomics Center [NCGC]\nNIH Molecular Libraries Probe Centers Network [MLPCN]\nAssay Submitter (PI): Thomas Bugge, National Institute of Dental and Craniofacial Research, NIH\nCultured RAW 264.7 were dispensed into 1536-well clear bottom, white walled tissue culture plates at a density of 4000 cells/well and were incubated overnight (12-16 h) at 37 C in a 5% CO2 incubator. Serially diluted compounds in 23 nl DMSO were added to cells. […] Compound and reagent-treated plates were incubated for 24 h at 37 C in a 5% CO2 incubator. Perkin Elmer ATPlitetrade mark 1 step (3 ul) was then added to each well. Luminescence was detected using a Perkin Elmer ViewLuxtrade mark plate reader.\n1.Dispensing RAW 264.7 cells into 1536-well, white walled tissue culture plates at a density of 4000 cells/well (4 uL).\n2.Incubation at 37 C in a 5% CO2 incubator overnight.\n3.Serially diluting compounds (1:5 serial dilution; 0.0024 uM to […] final concentration) in 23 nl DMSO.\n5.Incubating the compound and reagent-treated plates for 24 hours at 37 C in a 5% CO2 incubator.\n6.Adding ATP-Lite (3 ul).\n7.Reading plates by ViewLux with an exposure length of 5 seconds."}
{"compound": "Cc1csc(NC(=O)c2ccc(N3CCCC3=O)cc2)n1", "Potency": "active: 2.82 µM"}
{"compound": "Cc1c(C(=O)N2CCOCC2)sc2nc(-c3ccccc3)cn12", "activity change, negative = inhibition": "inactive: -1.43%"}
{"compound": "NC(=O)c1cn(-c2ccccc2)nc1-c1cccnc1", "activity change, negative = inhibition": "inactive: -1.22%"}
{"compound": "CC[C@]12c3[nH]c4cc(-c5ccco5)ccc4c3CCN1C(=O)[C@@H](CC(=O)NCC13CC4CC(CC(C4)C1)C3)C[C@@H]2C(=O)N1CCN(C(=O)C2CC2)CC1", "Potency": "inconclusive: 28.2 µM [inhibitor, single point]"}
{"compound": "COC(=O)c1ccc(N2CCN(C)CC2)c(NC(=O)COc2ccc(OC)cc2)c1", "activity change, negative = inhibition": "inactive: -2.27%"}
{"compound": "CN(CC1CCCO1)S(=O)(=O)c1ccc(C(=O)Nc2nc(-c3ccccn3)cs2)cc1", "note": "(centres undefined)", "Potency": "active: 3.98 µM"}
{"compound": "CC(=O)CCS(=O)(=O)c1ccc(NC(C)=O)cc1", "Potency": "inconclusive: 7.94 µM [inhibitor, partial curve, poor fit]"}
{"compound": "CC(C)(C)C(=O)Nc1ccc(NC(=O)c2ccco2)nc1", "activity change, negative = inhibition": "inactive: -15.8%"}
{"compound": "CCc1ccc2[nH]c(=O)c(CN(CCN(CC)CC)C(=S)NCc3ccco3)cc2c1", "Potency": "inconclusive: 6.31 µM [inhibitor, single point]"}
{"compound": "CC(C)N1C/C(=C/c2cccnc2)C(=O)/C(=C/c2cccnc2)C1", "Potency": "inconclusive: 11.2 µM [inhibitor, partial curve, poor fit]"}
{"compound": "CCCOc1ccc2cc(C(=O)NCc3ccccc3)c(=O)oc2c1", "activity change, negative = inhibition": "inactive: -0.512%"}
{"compound": "COc1ccc2c(c1)O[C@@H](c1cccc(C(F)(F)F)c1)[C@H](OC(=O)Nc1ccc(OC(F)F)cc1)C2=O", "Potency": "inconclusive: 8.91 µM [inhibitor, partial curve, poor fit]"}
{"compound": "O=C(CNC(=O)c1ccccc1Br)N/N=C/c1cc(Br)ccc1O", "Potency": "inconclusive: 8.91 µM [inhibitor, partial curve, poor fit]"}
{"compound": "Oc1cccc(/C=N/N=C/c2cccc(O)c2O)c1O", "activity change, negative = inhibition": "inactive: -12.3%"}
{"compound": "CCN(CC)C(=O)Cn1c(=O)c2ccccc2n2c(=S)sc(-c3cccc(C)c3)c12", "activity change, negative = inhibition": "inactive: -6.04%"}
{"compound": "N#Cc1cnc(SCC(=O)Nc2ccccc2C(F)(F)F)nc1N", "activity change, negative = inhibition": "inactive: 4.59%"}
{"compound": "Cc1c(C(=O)O)cnc2cc(-c3ccc(Cl)cc3)nn12", "Potency": "inconclusive: 7.08 µM [inhibitor, partial curve, poor fit]"}
{"compound": "CCC(C)c1ccccc1N1CC(C(=O)Nc2ccc(C)c(S(=O)(=O)N3CCOCC3)c2)CC1=O", "note": "(centres undefined)", "Potency": "inconclusive: 3.16 µM [inhibitor, partial curve, poor fit]"}
{"compound": "O=C1CCCN1CCCNS(=O)(=O)c1cccs1", "Potency": "inconclusive: 3.16 µM [inhibitor, partial curve, poor fit]"}
{"compound": "CCCC(=O)Nc1cc(S(=O)(=O)N(CC)CC)ccc1Cl", "activity change, negative = inhibition": "inactive: 3.85%"}
{"compound": "CSc1nc2ccc(NS(=O)(=O)c3ccc(CNC(C)=O)cc3)cc2s1", "Potency": "inconclusive: 0.794 µM [inhibitor, full curve]"}
{"compound": "CCO[C@@H]1OC(C(=O)N2CCOCC2)=C[C@H](c2ccc(C(F)(F)F)cc2)[C@H]1CCCO", "Potency": "inconclusive: 22.4 µM [inhibitor, single point]"}
{"compound": "CC(Nc1nc(-c2ccc(Cl)cc2)cs1)c1nc2cc(Cl)c(N3CCCCC3)cc2n1CCOCCO", "note": "(centres undefined)", "Potency": "inconclusive: 7.94 µM [inhibitor, single point]"}
{"compound": "COc1ccc(-n2cnc3c(sc4nc(N5CCOCC5)c5c(c43)CCCC5)c2=O)cc1", "activity change, negative = inhibition": "inactive: -1.81%"}
{"compound": "CN(C)CCNc1ncnc2c1cnn2-c1ccc(Cl)cc1", "Potency": "inconclusive: 7.94 µM [inhibitor, partial curve]"}
{"compound": "CCN1C(=N)N(c2ccccc2)C(=O)C(CC)(CC)C1=O", "activity change, negative = inhibition": "inactive: 4.5%"}
{"compound": "Cc1cc(C)cc(NC(=O)CCc2c(C)nn(-c3ccc(N4CCCCC4)nn3)c2C)c1", "Potency": "inconclusive: 7.94 µM [inhibitor, partial curve, poor fit]"}
{"compound": "COc1cc2c(cc1OC)C(C)N(C(=O)Nc1cc(C)cc(C)c1)CC2", "note": "(centres undefined)", "Potency": "inconclusive: 3.16 µM [inhibitor, partial curve, poor fit]"}
{"compound": "Cc1cccc(NS(=O)(=O)c2ccc(-c3cnc(C4CC4)o3)cc2)c1", "Potency": "inconclusive: 0.794 µM [inhibitor, partial curve, poor fit]"}
{"compound": "CN1CCc2c(n(CC(O)CN3CCN(CCO)CC3)c3ccccc23)C1=O", "note": "(centres undefined)", "Potency": "inconclusive: 5.62 µM [inhibitor, single point]"}
{"compound": "O=C(C1CCN(C2CC(=O)N(c3ccc(F)cc3)C2=O)CC1)N1CCOCC1", "note": "(centres undefined)", "activity change, negative = inhibition": "inactive: 5.89%"}
{"compound": "O=C(CSc1ccsc1[N+](=O)[O-])Nc1cc(F)ccc1F", "Potency": "inconclusive: 7.94 µM [inhibitor, partial curve, poor fit]"}
{"compound": "O=C(CSc1ccccc1C(=O)NCc1ccccc1)NC1CCCCCCC1", "Potency": "inconclusive: 0.316 µM [inhibitor, full curve, poor fit]"}
{"compound": "NC(=O)C12CCCC(Br)(CCC1)C2", "activity change, negative = inhibition": "inactive: 1.09%"}
{"compound": "Cc1ccc(/C=N/NC(=O)c2c(C)nc3ccc(Br)cn23)cc1", "Potency": "inconclusive: 0.891 µM [inhibitor, full curve, poor fit]"}
{"compound": "COc1ccc(C(=O)Nc2ccc(C(=O)O)cc2NC(=O)c2ccc(OC)cc2)cc1", "activity change, negative = inhibition": "inactive: 13.3%"}
{"compound": "COc1cccc(N2CCN(C(=O)C3CCN(S(=O)(=O)c4ccc5c(c4)CC(C)N5C(C)=O)CC3)CC2)c1", "note": "(centres undefined)", "Potency": "inconclusive: 12.6 µM [inhibitor, single point]"}
{"compound": "Cc1ccc(NC2=C(NC(=O)c3ccccc3)C(=O)c3ccccc3C2=O)cc1Cl", "Potency": "inconclusive: 28.2 µM [inhibitor, single point]"}
{"compound": "CCOC(=O)N1CCN(Cc2nc3ccc([N+](=O)[O-])cc3c(=O)n2-c2ccccc2F)CC1", "Potency": "inconclusive: 28.2 µM [inhibitor, single point]"}
{"compound": "CCOC(=O)N1CCN(S(=O)(=O)c2ccc(C(=O)Nc3ccc(F)cc3F)cc2)CC1", "Potency": "inconclusive: 1.12 µM [inhibitor, full curve, poor fit]"}
{"compound": "COc1ccccc1NS(=O)(=O)c1cn(C)cn1", "activity change, negative = inhibition": "inactive: 14.5%"}
{"compound": "CCOC(=O)C1=C(O)/C(=C/c2ccc(-c3ccccc3C(=O)O)o2)SC1=Nc1ccc(C)cc1", "Potency": "inconclusive: 11.2 µM [inhibitor, single point]"}
{"compound": "CCCn1nnc(NC(=O)c2ccc(Cl)cc2Cl)n1", "activity change, negative = inhibition": "inactive: -1.89%"}
{"compound": "C[n+]1c2n(c3ccccc31)N=C(c1ccc(-c3ccccc3)cc1)CS2", "Potency": "inconclusive: 10 µM [inhibitor, partial curve, poor fit]"}
{"compound": "CCn1nc(C)c(CNC(=O)c2ccc(OC3CCN(Cc4ccccn4)CC3)cc2)c1C", "Potency": "inconclusive: 3.55 µM [inhibitor, partial curve, poor fit]"}
{"compound": "C[C@]12c3[nH]c4cc(-c5ccco5)ccc4c3CCN1C(=O)[C@@H](CC(=O)NCc1cccc(C(F)(F)F)c1)C[C@@H]2C(=O)N1CCCCC1", "Potency": "inconclusive: 14.1 µM [inhibitor, single point]"}
{"compound": "c1ccc(-c2csc3ncnc(NCc4ccccn4)c23)cc1", "Potency": "inconclusive: 10 µM [inhibitor, single point]"}
{"compound": "COc1ccc(-c2cc(C(=O)N/N=C(\\C)c3ccco3)c3ccccc3n2)c(OC)c1", "activity change, negative = inhibition": "inactive: -4.94%"}
{"compound": "CCOC(=O)c1[nH]cc(-c2ccccc2)c1N1CCOCC1", "activity change, negative = inhibition": "inactive: 6.21%"}
{"compound": "C=CCCC1CN(Cc2ccco2)S(=O)(=O)c2c(F)cccc2O1", "note": "(centres undefined)", "Potency": "inconclusive: 8.91 µM [inhibitor, partial curve, poor fit]"}
{"compound": "O=C(/C=C/c1ccc(Cl)cc1)Nc1nccs1", "Potency": "inconclusive: 5.01 µM [inhibitor, partial curve]"}
{"compound": "CN1CCN(S(=O)(=O)c2cccc(C(=O)N(C)C(c3ccccc3)c3ccccc3)c2)CC1", "Potency": "inconclusive: 11.2 µM [inhibitor, single point]"}
{"compound": "CC1CC(C)CN(S(=O)(=O)CC23CCC(CC2=O)C3(C)C)C1", "note": "(centres undefined)", "activity change, negative = inhibition": "inactive: 0.108%"}
{"compound": "C/C(=N\\NC(=O)c1ccc2c(c1)OCO2)c1ccco1", "Potency": "inconclusive: 8.91 µM [inhibitor, partial curve, poor fit]"}
{"compound": "Cc1c(Cl)cccc1NC(=O)COC(=O)CN1C(=O)NC(C)(C)C1=O", "activity change, negative = inhibition": "inactive: -4.29%"}
{"compound": "CCN1/C(=C/c2cccc[n+]2C)Sc2ccc(OC)cc21", "Potency": "inconclusive: 2.82 µM [inhibitor, single point]"}
{"compound": "N=c1c(C(=O)NCc2ccco2)cc2c(=O)n3ccccc3nc2n1Cc1ccc(Cl)cc1", "activity change, negative = inhibition": "inactive: 4.66%"}
{"compound": "Cc1ccc(OCC(=O)N2CCN(S(=O)(=O)c3ccc(Cl)s3)CC2)cc1C", "Potency": "inconclusive: 0.0178 µM [inhibitor, full curve, poor fit]"}
{"compound": "CCCOCCOC(=O)c1[nH]c2c(c1C)C(=O)CC(c1cc(OC)ccc1OC)C2", "note": "(centres undefined)", "Potency": "inconclusive: 2.51 µM [inhibitor, full curve, poor fit]"}
{"compound": "Cc1c(Cl)cccc1Nc1nc(NCCO)c2ccccc2n1", "activity change, negative = inhibition": "inactive: -6.02%"}
{"compound": "CCc1cccc(NC(=O)CC2SC(N3CCCC3)=NC2=O)c1", "note": "(centres undefined)", "activity change, negative = inhibition": "inactive: -0.777%"}
{"compound": "COc1ccc(/C=C/c2cc(-c3ccc(C)cc3)o[n+]2C)cc1", "activity change, negative = inhibition": "inactive: -9.73%"}
{"compound": "CN(C)CCNC(=O)Cn1c(=O)c2cccn2c2ccc(F)cc21", "Potency": "inconclusive: 12.6 µM [inhibitor, partial curve, poor fit]"}
{"compound": "CCn1c(/C=C/c2ccccc2)nc2ccccc2c1=O", "Potency": "inconclusive: 14.1 µM [inhibitor, partial curve, poor fit]"}
{"compound": "CCCCCc1ccc(OCCOCCn2c[n+](C)c3ccccc32)c(CCCCC)c1", "Potency": "inconclusive: 10 µM [inhibitor, single point]"}
{"compound": "Cc1ccc(/C=C/C(=O)CCC(=O)O)cc1", "activity change, negative = inhibition": "inactive: -0.49%"}
{"compound": "N#Cc1c(-c2cccc(F)c2)cc(-c2ccccc2)nc1Br", "activity change, negative = inhibition": "inactive: 1.42%"}
{"compound": "O=C(Nc1cc(S(=O)(=O)N2CCOCC2)ccc1N1CCCCC1)c1ccc(Cl)cc1", "activity change, negative = inhibition": "inactive: 10.5%"}
{"compound": "Cc1ccccc1/C=C/c1cc[n+](C)cc1", "Potency": "inconclusive: 22.4 µM [inhibitor, partial curve, poor fit]"}
